Data published in article PMC4063743.
These are yes or no findings as the source states them, for the method shown. In cells and extracts the contact can be indirect. A result given as binding can be weak or reduced; the word gives no strength. Sequences can lack the tags named with a protein.

Target: T1, GST-Vvl fusion protein (Tribolium Ventral veins lacking/Drifter) (Tribolium castaneum) (UniProt C0KZ11)
T1 sequence: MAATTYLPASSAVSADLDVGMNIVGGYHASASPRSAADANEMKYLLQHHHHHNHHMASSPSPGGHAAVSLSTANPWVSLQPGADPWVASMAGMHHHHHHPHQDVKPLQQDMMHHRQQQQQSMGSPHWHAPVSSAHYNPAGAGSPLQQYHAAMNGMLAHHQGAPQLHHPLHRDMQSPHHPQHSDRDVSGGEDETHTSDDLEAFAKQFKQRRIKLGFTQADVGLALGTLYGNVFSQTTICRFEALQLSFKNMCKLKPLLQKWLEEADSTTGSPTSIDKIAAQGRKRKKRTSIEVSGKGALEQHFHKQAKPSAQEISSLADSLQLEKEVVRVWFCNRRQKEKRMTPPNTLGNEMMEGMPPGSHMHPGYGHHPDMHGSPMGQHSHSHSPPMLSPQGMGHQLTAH
Assay: pull-down; GST-Vvl held on Glutathione Sepharose 4B, incubated with Flag-Met, Flag-EcRA, Flag-EcRB and/or Flag-Usp for 2 hours at 4°C; Flag-tagged protein detected by anti-Flag M2 blot; only the target purified

Substance | binding
Flag-EcRA fusion protein (Tribolium Ecdysone receptor isoform A) | binds
Flag-EcRB fusion protein (Tribolium Ecdysone receptor isoform B) | binds
Flag-Met fusion protein (Tribolium Methoprene-tolerant) | no binding
